Article PMC10055175

Target: T1, CATSPER4-HA (mouse) (UniProt Q8BVN3)
T1 sequence: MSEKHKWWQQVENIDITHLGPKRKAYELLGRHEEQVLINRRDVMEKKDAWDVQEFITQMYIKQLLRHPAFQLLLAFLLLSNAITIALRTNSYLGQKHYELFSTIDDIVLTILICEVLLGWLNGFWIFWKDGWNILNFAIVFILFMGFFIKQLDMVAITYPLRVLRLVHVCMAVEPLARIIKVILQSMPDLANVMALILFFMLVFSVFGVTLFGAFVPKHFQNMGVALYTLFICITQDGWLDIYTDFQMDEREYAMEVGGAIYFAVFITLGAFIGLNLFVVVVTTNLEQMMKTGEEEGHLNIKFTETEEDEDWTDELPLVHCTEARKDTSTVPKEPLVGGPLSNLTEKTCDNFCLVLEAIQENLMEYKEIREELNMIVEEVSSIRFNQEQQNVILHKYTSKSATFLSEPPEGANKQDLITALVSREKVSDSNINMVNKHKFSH
Assay: co-IP; HA- and Flag-tagged constructs co-transfected into 293T cells, precipitated with anti-HA antibodies, blotted with anti-HA and anti-Flag antibodies

binding: binds
Substance: CATSPERθ-Flag (mouse)

No constants are given. Whether binding was seen depends on the method and setting. Binding seen in cells or lysates may run through a third protein. A result given as binding can be weak or reduced; the word gives no strength. Tags and fused reporters may be left off the sequences shown.
